The list shows a part of the results.
Compound: Cc1cc(ccc1-c1ccccc1)C(=O)N1CCCN(CC1)C(=O)CCl [compound 10]
Test: probe-labelled cysteine peptide fold change vs DMSO (competition) (log2 fold change); higher = less target engagement (more negative = stronger competition)
Conditions: THP-1, incubation time: 4 h
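Also: competitive profiling in live THP-1 cells: cysteine peptides tagged with an iodoacetamide desthiobiotin (IA-DTB) probe, intensity after compound treatment relative to DMSO-treated cells.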

By UniProt entry, the sequences of proteins in these tests, tags left out. Where a name states a change or a piece, a line headed by the entry shows the natural chain unless it says otherwise.
UniProt Q07954: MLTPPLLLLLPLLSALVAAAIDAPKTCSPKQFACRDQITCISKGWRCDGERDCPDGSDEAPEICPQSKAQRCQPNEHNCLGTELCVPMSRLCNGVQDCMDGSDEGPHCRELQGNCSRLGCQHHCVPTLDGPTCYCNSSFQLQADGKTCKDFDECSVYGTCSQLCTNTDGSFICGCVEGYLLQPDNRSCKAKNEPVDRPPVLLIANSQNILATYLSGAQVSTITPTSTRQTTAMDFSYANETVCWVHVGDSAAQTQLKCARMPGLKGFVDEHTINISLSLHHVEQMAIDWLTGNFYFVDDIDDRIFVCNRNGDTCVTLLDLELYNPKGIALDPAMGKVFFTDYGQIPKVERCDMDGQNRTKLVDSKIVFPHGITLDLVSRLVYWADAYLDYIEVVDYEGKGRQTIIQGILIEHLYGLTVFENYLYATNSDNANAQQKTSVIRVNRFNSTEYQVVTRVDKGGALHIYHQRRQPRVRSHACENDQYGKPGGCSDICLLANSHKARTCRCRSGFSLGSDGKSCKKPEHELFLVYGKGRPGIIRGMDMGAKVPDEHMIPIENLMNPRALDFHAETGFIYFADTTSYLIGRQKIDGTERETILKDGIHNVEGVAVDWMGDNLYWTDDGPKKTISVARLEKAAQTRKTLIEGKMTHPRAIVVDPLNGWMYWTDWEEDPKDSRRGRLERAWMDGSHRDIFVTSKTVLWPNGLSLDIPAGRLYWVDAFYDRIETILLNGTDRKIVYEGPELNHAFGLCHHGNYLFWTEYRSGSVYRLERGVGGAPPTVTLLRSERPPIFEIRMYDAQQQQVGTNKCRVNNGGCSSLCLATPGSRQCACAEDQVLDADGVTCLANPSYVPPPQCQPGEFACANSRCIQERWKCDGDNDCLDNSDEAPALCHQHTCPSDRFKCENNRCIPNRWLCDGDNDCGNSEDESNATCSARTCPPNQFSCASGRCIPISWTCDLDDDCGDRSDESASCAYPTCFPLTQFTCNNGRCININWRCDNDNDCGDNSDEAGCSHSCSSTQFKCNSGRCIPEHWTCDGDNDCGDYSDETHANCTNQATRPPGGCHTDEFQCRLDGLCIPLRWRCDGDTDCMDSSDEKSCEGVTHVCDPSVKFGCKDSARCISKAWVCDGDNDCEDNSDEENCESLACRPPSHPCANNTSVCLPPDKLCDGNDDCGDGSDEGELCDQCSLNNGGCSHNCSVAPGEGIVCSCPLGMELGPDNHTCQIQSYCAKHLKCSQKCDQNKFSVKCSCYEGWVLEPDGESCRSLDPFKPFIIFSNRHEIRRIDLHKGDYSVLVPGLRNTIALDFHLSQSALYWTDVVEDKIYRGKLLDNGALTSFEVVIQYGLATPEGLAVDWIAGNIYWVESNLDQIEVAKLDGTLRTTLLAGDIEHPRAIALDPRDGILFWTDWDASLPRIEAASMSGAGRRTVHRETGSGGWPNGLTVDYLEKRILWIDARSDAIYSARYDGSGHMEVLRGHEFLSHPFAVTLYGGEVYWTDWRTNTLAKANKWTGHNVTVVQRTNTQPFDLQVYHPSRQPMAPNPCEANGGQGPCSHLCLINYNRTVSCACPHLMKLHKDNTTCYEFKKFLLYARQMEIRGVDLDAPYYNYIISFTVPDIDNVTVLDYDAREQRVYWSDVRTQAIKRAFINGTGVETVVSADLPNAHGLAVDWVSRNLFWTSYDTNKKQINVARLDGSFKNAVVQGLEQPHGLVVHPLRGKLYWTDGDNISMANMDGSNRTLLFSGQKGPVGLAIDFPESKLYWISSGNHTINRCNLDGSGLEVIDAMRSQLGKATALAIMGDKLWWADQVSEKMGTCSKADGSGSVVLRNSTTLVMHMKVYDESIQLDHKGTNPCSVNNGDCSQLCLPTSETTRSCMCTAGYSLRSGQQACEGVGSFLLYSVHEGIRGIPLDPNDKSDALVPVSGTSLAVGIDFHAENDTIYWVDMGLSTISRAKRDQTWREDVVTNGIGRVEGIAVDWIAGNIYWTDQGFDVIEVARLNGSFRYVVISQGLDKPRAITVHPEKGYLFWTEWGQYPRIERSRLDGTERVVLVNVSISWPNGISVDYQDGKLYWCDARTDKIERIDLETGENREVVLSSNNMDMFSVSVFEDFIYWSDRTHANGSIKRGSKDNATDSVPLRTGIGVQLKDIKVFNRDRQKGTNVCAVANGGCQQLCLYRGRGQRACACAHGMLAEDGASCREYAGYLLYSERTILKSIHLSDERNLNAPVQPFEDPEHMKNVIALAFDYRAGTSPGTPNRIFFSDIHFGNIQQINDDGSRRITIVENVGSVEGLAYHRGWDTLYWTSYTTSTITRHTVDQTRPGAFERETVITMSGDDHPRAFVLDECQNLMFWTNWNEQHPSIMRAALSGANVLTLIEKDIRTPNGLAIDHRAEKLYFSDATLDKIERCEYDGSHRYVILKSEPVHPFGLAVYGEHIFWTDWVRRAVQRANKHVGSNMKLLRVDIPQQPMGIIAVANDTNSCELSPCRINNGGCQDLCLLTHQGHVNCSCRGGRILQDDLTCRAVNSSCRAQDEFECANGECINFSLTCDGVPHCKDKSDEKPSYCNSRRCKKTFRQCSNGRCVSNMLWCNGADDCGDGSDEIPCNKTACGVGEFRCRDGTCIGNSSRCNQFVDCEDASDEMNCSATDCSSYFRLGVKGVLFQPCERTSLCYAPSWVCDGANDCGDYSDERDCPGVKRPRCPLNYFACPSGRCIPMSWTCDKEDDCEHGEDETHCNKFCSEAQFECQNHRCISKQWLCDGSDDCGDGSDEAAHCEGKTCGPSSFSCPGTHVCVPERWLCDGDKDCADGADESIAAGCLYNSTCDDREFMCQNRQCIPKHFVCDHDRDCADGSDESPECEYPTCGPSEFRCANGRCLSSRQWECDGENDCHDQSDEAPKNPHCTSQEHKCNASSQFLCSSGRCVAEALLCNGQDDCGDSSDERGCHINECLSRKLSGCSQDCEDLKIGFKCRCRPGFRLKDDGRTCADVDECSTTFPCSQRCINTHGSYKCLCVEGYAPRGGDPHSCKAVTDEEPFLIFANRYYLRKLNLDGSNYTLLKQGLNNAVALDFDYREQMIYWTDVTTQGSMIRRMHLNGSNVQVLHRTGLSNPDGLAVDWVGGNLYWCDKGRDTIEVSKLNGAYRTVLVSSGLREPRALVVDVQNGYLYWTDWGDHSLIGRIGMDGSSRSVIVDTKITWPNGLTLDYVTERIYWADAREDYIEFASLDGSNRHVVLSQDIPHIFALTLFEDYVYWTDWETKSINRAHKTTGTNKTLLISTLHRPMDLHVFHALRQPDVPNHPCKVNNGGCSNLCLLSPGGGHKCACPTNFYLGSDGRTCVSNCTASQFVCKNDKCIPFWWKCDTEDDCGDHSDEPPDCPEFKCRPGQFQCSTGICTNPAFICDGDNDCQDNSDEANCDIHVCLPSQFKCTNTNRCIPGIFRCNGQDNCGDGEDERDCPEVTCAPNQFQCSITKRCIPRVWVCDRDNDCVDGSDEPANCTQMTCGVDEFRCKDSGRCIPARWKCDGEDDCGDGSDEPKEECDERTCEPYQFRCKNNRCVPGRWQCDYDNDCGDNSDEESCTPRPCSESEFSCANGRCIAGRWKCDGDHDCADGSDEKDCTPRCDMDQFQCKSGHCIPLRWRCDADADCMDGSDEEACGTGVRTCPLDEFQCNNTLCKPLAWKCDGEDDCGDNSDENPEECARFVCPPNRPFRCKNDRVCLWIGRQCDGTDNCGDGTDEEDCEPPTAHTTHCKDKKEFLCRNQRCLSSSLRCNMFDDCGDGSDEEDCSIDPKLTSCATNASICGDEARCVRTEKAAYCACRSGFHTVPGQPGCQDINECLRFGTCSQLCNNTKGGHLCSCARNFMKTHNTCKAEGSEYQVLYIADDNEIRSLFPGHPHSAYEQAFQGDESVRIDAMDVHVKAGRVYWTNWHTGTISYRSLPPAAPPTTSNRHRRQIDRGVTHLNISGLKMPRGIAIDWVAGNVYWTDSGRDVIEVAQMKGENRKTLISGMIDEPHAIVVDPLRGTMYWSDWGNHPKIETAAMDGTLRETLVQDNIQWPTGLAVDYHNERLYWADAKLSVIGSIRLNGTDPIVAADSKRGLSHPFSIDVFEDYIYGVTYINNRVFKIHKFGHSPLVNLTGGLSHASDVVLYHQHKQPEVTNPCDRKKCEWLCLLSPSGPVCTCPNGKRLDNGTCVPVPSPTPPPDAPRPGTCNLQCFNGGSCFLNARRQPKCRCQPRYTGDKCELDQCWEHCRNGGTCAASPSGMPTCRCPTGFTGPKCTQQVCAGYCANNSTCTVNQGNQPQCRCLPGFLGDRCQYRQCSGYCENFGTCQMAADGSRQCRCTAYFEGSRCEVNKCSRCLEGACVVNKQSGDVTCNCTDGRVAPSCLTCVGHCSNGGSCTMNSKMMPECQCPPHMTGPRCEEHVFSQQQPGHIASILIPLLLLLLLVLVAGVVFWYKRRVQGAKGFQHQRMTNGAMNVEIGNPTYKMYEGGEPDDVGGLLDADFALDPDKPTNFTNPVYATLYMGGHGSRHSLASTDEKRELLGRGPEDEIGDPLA
UniProt P18858, whole entry, looked up: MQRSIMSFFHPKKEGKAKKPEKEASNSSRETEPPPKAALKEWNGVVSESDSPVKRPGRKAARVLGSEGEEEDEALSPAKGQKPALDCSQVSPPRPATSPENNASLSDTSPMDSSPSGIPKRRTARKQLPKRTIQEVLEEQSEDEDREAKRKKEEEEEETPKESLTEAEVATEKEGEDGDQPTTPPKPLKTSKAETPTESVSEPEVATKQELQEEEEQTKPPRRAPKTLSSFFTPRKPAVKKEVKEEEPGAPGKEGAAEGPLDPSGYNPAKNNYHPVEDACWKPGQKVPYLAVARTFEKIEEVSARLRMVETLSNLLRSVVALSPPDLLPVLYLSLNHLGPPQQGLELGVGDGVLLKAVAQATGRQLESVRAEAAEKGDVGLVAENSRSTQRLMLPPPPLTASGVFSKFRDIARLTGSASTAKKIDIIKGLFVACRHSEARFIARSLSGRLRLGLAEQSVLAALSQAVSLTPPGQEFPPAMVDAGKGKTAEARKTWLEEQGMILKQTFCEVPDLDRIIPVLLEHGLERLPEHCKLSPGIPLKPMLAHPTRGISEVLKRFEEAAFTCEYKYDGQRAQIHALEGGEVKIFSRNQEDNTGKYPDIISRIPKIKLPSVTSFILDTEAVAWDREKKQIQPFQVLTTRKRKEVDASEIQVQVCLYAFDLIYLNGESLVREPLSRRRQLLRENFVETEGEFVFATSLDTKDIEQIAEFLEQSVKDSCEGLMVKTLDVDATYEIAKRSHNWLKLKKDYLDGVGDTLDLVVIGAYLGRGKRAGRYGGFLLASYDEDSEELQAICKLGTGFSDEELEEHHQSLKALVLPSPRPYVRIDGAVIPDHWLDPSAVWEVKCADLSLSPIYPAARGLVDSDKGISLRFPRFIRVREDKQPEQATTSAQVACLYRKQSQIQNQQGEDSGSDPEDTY
UniProt Q3MHD2: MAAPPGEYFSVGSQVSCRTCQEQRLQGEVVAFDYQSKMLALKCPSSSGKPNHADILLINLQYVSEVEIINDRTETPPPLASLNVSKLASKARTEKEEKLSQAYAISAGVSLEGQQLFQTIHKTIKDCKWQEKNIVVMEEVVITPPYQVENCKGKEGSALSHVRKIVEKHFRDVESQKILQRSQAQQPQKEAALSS
UniProt Q86WA8: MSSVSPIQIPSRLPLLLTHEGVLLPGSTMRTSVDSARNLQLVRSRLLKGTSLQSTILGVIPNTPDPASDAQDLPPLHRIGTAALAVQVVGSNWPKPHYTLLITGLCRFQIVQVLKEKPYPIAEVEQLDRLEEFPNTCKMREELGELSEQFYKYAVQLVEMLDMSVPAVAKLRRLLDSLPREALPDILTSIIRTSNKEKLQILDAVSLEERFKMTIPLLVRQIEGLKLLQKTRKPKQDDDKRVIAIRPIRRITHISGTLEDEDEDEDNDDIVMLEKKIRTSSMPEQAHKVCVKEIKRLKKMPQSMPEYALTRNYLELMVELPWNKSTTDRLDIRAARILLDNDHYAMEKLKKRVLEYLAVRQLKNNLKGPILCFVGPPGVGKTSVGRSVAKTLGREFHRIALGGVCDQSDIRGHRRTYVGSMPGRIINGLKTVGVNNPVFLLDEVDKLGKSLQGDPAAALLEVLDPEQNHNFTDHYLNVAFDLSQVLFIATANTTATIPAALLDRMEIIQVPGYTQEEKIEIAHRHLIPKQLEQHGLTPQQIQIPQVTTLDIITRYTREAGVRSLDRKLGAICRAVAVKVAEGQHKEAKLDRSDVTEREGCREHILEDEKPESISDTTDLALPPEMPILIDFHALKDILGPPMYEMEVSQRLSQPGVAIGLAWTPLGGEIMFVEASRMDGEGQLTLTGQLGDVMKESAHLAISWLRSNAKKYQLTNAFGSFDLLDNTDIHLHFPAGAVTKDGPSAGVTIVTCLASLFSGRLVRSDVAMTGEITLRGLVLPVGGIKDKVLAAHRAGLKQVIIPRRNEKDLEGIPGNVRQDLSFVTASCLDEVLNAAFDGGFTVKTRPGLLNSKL

Target	probe-labelled cysteine peptide fold change (10 µM)	probe-labelled cysteine peptide fold change (50 µM)
LRRC47_Q8N1G4_450_YLHLLDGNENYPCLVDADGDVISFPPITNSEK (UniProt Q8N1G4)	-0.235	-0.182
LRRC47_Q8N1G4_190_PGALPLLSELAAADNCLR (UniProt Q8N1G4)	-0.322	0.0652
LMO7_Q8WWI1_98_ASLENGVLLCDLINK (UniProt Q8WWI1)	0.553	0.766
LIG3_P49916_729_CAGGHDDATLAR (UniProt P49916)	0.123	0.00897
LRRC59_Q96AG4_131_VAGDCLDEK (UniProt Q96AG4)	0.0645	-0.227
LRP1_Q07954_2404_CEYDGSHR (UniProt Q07954)	-0.124	-0.29
LRR1_Q96L50_5_LHCEVEVISR (UniProt Q96L50)	-0.12	0.0535
LETM1_O95202_552_DTAPVLEGLKEEEITKEEIDILSDACSK (UniProt O95202)	0.134	-0.338
LRRC8A_Q8IWT6_684_IPTQLFYCR (UniProt Q8IWT6)	0.162	0.2
LGALS1_P09382_61_FNAHGDANTIVCNSK (UniProt P09382)	-0.0995	-0.0373
LIPE_Q05469_382_CCLAHLLHK (UniProt Q05469)	-0.0718	-0.347
LIG1_P18858_846_CADLSLSPIYPAAR (UniProt P18858)	0.126	0.0205
LSM12_Q3MHD2_151_NIVVMEEVVITPPYQVENCK (UniProt Q3MHD2)	0.101	0.104
LONP2_Q86WA8_405_IALGGVCDQSDIR (UniProt Q86WA8)	0.0443	0.172
